In patent US20250179031A1, “PROTEASOME ENHANCERS AND USES THEREOF” (Board of Trustees of Michigan State University, priority 2022, published 2025):
Some results were stated once for a whole list of compounds, not compound by compound.

Each compound was assayed on T1, human 20S proteasome (assay: Fluorogenic peptide degradation 20S proteasome activity assay, combination of CT-L, T-L and Casp-L substrates). Details: stated in text for the active compounds.
T1 construct: purchased Boston Biochem, Inc. (Cambridge, MA)
Format: biochemical
Description: Activity assays were carried out in a 100 μL reaction volume. Different concentrations (40-1.25 μM) of test compounds (1 μL) were added to a black flat/clear bottom 96-well plate containing 2 nM of human constitutive 20S proteasome ([…]), in 50 mM Tris-HCl at pH 7.8, 100 mM NaCl and allowed to incubate for 15 min at 37° C. Fluorogenic substrates (5 μL) were then added and the enzymatic activity measured at 37° C. on a SpectraMax M5e spectrometer by measuring the change in fluorescence unit per minute for 1 hour at 380-460 nm. The fluorescence units for the vehicle control were set at a 100%, and the ratio of drug-treated sample set to that of vehicle control was used to calculate the fold change in enzymatic activity. The fluorogenic substrates used were one of the following: Suc-LLVY-AMC (CT-L activity, 20 μM), Z-LLE-AMC (Casp-L activity, 20 μM), Boc-LRR-AMC (Trp-L activity, 40 μM) or a combination of the three substrates each at 6.67 μM. Results were analysed and plotted using GraphPad Prism 7.
Screening of this library of dihydroquinazolines was performed in two stages. In the first stage, each compound was screened at three concentrations (3, 10 and 30 μM) to select lead agents. Secondly, lead agents were further analyzed using full concentration responses (6-point titration ranging from 1.25 μM-40 μM) for each of the three proteolytic activities of the 20S proteasome and a combination thereof. The proteolytic activity of the 20S proteasome can be monitored in vitro by measuring the cleavage of fluorogenic peptide substrates for the different catalytic sites as an increase in 7-amino-4-methycoumarin (AMC) fluorescence overtime. […]
Pure human 20S proteasome was pre-treated with 3, 10 or 30 μM of one of the analogues or DMSO (vehicle control) for 15 min at 37° C. […] The release of AMC was monitored as fluorescence overtime for 1 h and the resulting 20S activity changes were determined by comparing to the untreated 20S and calculating the fold-increase in activity for each analogue at a given concentration (Table 1, 30 μM). […]

| SMILES | maximum fold increases in 20S activity |
| --- | --- |
| COc1ccc2c(c1)N=C(c1ccccc1)N(Cc1ccccc1)C2c1ccccc1 (stereo not drawn) [Compound 2] | > 500% |
| COc1ccc2c(c1)N=C(c1ccccc1)N(c1ccccc1)C2c1ccccc1 (stereo not drawn) [Compound 10] | > 500% |
| COc1ccc2c(c1)N=C(c1ccccc1)N(C1CCN(Cc3ccccc3)CC1)C2c1ccccc1 (stereo not drawn) [Compound 18] | > 500% |
